Laboratory results published in PubChem BioAssay AID1487 (National Center for Advancing Translational Sciences (NCATS), 2009).
The list shows a part of the results. Further columns of the screen follow, without active or inactive calls. Compounds called inactive in the main read-out are mostly missing here. The note in brackets gives the kind of curve behind each potency; many fits are weak.

Test: qHTS Assay for Modulators of Lamin A Splicing
Conditions: HeLa LMNA splicing GFP/RFP minigene ratio, 48 h
How it was run: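 Read-out is the ratio of GFP to DsRed2 object intensity, acquired by 488 nm laser-scanning cytometry on HeLa lamin A-EGFP minigene reporter cells. Compound incubation 48 hrs at 37 °C in Opti-MEM with 2% FBS; DMSO 0.5% final.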

[1] = measured here: GFP splicing reporter channel
[2] = measured here: RFP viability control channel

Compound | AC50 [1] | AC50 [2]
O=C(CCCC(=O)N1CCN(c2ccccc2F)CC1)N1CCN(c2ccccc2F)CC1 | 31.6 µM [rising, single point] | 20 µM [rising, single point]
CCCn1c(CC)nc([N+](=O)[O-])c1S(=O)(=O)c1ccccc1 | 7.94 µM [falling, partial curve] | 10 µM [falling, partial curve]
COc1cc(C)ccc1OCCOCCOc1ccc(C)cc1[N+](=O)[O-] | – | 3.98 µM [rising, full curve, poor fit]
N#C/C(=C\c1ccco1)c1nc2ccccc2s1 | – | 22.4 µM [rising, single point]
O=C(CN(Cc1ccco1)C(=O)CCC(=O)Nc1nccs1)NCc1ccccc1 | – | 2 µM [rising, partial curve, poor fit]
O=C(CSc1nnc(NC(=O)c2ccccc2Cl)s1)Nc1ccc2c(c1)oc1ccccc12 | 0.794 µM [rising, partial curve, poor fit] | –
C=Cc1ccc(Cn2ccn(-c3ccc(F)c(F)c3)c(=O)c2=O)cc1 | – | 12.6 µM [rising, single point]
CCc1nnc(NC(=O)c2nc3nc(C)cc(C)n3n2)s1 | 3.98 µM [falling, partial curve] | 3.16 µM [falling, partial curve, poor fit]
COc1ccc(/C=N/NC(=O)CCn2c3ccccc3c3ccccc32)cc1O | – | 5.01 µM [rising, full curve]
CCc1ccc(NC(=O)C(=O)NCc2ccccn2)cc1 | 5.62 µM [falling, partial curve] | 3.55 µM [falling, full curve, poor fit]
Cn1c(=O)c2[nH]c(CNCc3ccccc3Cl)nc2n(C)c1=O | – | 35.5 µM [rising, single point]
CCCCCCCCNC(=O)/C(C#N)=C/c1ccccc1[N+](=O)[O-] | 35.5 µM [falling, single point] | 35.5 µM [falling, single point]
COc1cc(CNCc2ccco2)ccc1OCc1ccccc1 | 35.5 µM [rising, partial curve] | –
COc1ccccc1Nc1nc(N)nc(CN2CCC(C)CC2)n1 | 8.91 µM [falling, partial curve, poor fit] | –
Cc1ccc(C)c(S(=O)(=O)Nc2cc(SCC(=O)O)c(O)c3ccccc23)c1 | 35.5 µM [falling, single point] | 25.1 µM [falling, single point]
CC(/C=C/c1ccc(N(C)C)cc1)=N\N=C1\NC(=O)CC(C(=O)Nc2ccccc2)S1 (configuration not stated) | – | 4.47 µM [rising, partial curve]
COc1ccc(OC)c(NC(=O)C2C3CCC(O3)C2C(=O)O)c1 (configuration not stated) | 0.0891 µM [falling, partial curve, poor fit] | 0.355 µM [falling, partial curve, poor fit]
O=C(CNC(=O)c1cccc(F)c1)N/N=C/c1cc(Br)ccc1OCc1ccccc1 | – | 15.8 µM [rising, single point]
Cc1cccc(C)c1OCCCCc1c(C)n[nH]c1C | 12.6 µM [rising, partial curve] | 15.8 µM [rising, single point]
CC(C)CNC(=O)CN(c1cccc(Cl)c1)S(C)(=O)=O | 0.00398 µM [rising, full curve, poor fit] | –
CSc1nsc(/C=C/Nc2cccc(Cl)c2)c1C#N | 25.1 µM [rising, single point] | 35.5 µM [rising, single point]
Cc1cc(C)nc(SCNC(=O)c2ccc(F)cc2)n1 | 35.5 µM [falling, single point] | 31.6 µM [falling, single point]
CCOC(=O)C1=C(C)NC(=O)NC1c1ccc(OC)c(CN2CCOCC2)c1 (configuration not stated) | – | 10 µM [rising, single point]
O=C(c1cccc(S(=O)(=O)N2CCc3ccccc3C2)c1)N1CCN(c2ccccc2)CC1 | 11.2 µM [rising, partial curve] | 15.8 µM [rising, partial curve]
CCOc1ccc(C2=NNC(c3cccs3)=Nc3ccc(OC)cc32)cc1OCC | – | 12.6 µM [rising, single point]
CC(C)(C)NC(=O)N1CCC(C(=O)O)CC1 | – | 7.94 µM [falling, partial curve, poor fit]
CCCC(=O)Nc1c(C(=O)OCC)oc2ccccc12 | – | 0.141 µM [falling, partial curve, poor fit]
COc1ccc(OC)c(C2C=C(c3ccc(C)c(C)c3)Nc3nnnn32)c1 (configuration not stated) | – | 1 µM [rising, partial curve]

Sorted by formula weight (smallest number first): some entries from above
Compound | AC50 [1] | AC50 [2]
Cc1cccc(C)c1OCCCCc1c(C)n[nH]c1C | 12.6 µM [rising, partial curve] | 15.8 µM [rising, single point]
CCOC(=O)C1=C(C)NC(=O)NC1c1ccc(OC)c(CN2CCOCC2)c1 (configuration not stated) | – | 10 µM [rising, single point]
O=C(CN(Cc1ccco1)C(=O)CCC(=O)Nc1nccs1)NCc1ccccc1 | – | 2 µM [rising, partial curve, poor fit]

Later entries

Compound | AC50 [1] | AC50 [2]
C[C@@H]1CC[C@H]2C(=O)N3[C@@H](CC[C@@H](C)[C@@H]3c3ccc(Br)cc3)C(=O)N2[C@H]1c1ccc(Br)cc1 | – | 12.6 µM [rising, partial curve]
O=C1NCCc2c1[nH]c1ccc([N+](=O)[O-])cc21 | – | 0.1 µM [falling, full curve, poor fit]
COc1ccccc1CNC(=O)CCC1N=C2c3ccccc3N=C(SCc3ccc(Cl)cc3)N2C1=O (configuration not stated) | – | 0.02 µM [falling, full curve, poor fit]
Cc1cccc(Oc2nc(-c3ccccn3)nc3ccccc23)c1 | – | 15.8 µM [rising, single point]
Cc1cccc(C(=O)NNC(=O)c2cc3cc4ccccc4nc3s2)c1 | 14.1 µM [falling, single point] | 22.4 µM [falling, single point]
O=C(N1CCN(Cc2ccccc2)CC1)C(Cl)(Cl)Cl | – | 15.8 µM [rising, single point]
O=[N+]([O-])c1ccc(CSc2nc3ccccc3o2)cc1 | 0.355 µM [rising, single point] | 35.5 µM [rising, single point]
CC(C)Cc1nc2ccccc2n1CCc1ccccc1 | 12.6 µM [rising, single point] | 35.5 µM [rising, single point]
Cc1cnc(C(=O)N2CCCC(C(=O)c3ccc(Cl)cc3C)C2)cn1 (configuration not stated) | 0.355 µM [falling, full curve, poor fit] | 11.2 µM [falling, partial curve, poor fit]
O=C(CCC(=O)Nc1ccc(Cl)cc1Cl)N/N=C/c1ccc([N+](=O)[O-])o1 | 3.16 µM [rising, single point] | –
COc1ccccc1-c1nnc(Nc2nc3c(OC)cccc3s2)o1 | – | 0.178 µM [rising, full curve, poor fit]
CC1(C)C(=O)N(CC(=O)Nc2ccc(Cl)cc2)c2ccccc21 | 0.0251 µM [falling, full curve, poor fit] | 0.0447 µM [falling, full curve, poor fit]
O=C(Nc1cccc(C(=O)O)c1)Nc1ccccc1Cl | 2 µM [falling, partial curve, poor fit] | 0.112 µM [falling, full curve, poor fit]
CN(c1ccccc1)S(=O)(=O)c1ccc(NC(=S)NC(=O)c2ccccc2)cc1 | 20 µM [rising, partial curve, poor fit] | 14.1 µM [rising, single point]
CCC(CO)[n+]1c(C)cc(/C=C2\Sc3ccccc3N2Cc2ccccc2)cc1C (configuration not stated) | – | 14.1 µM [rising, partial curve, poor fit]
COC(=O)/C=C1\OC(c2ccccc2)=CC1=O | – | 12.6 µM [rising, single point]
Cc1cc(C(=O)N/N=C2\CC(=O)CC(C)(C)C2)c(C)n1-c1ccc(F)cc1 | – | 14.1 µM [rising, single point]
O=C(NCc1ccc2c(c1)OCO2)c1cc(-c2ccccn2)nc2ccccc12 | 11.2 µM [falling, partial curve, poor fit] | –
O=C(c1ccco1)N(Cc1cccnc1)c1nc2ccc(F)cc2s1 | 0.00355 µM [falling, full curve, poor fit] | 0.00891 µM [falling, full curve, poor fit]
CCN(CC)c1ccc2c(Cl)c(Br)c(=O)oc2c1 | – | 35.5 µM [falling, single point]
Cc1nn(C(=O)C2CC2)c(C)c1Sc1ccc(Cl)cc1 | – | 12.6 µM [rising, single point]
Cc1ccnc(NC(=O)c2ccc(Cl)c(NC(=O)C(C)Oc3ccccc3)c2)c1 (configuration not stated) | – | 0.00224 µM [falling, full curve, poor fit]
O=C(Nc1ccc2c(c1)CCC2)C1CCN(c2c3c(nc4ncnn24)CCC3)CC1 | 2 µM [rising, full curve] | 7.94 µM [rising, partial curve]
O=C(CSc1nccn1Cc1ccco1)Nc1cccc(F)c1 | – | 35.5 µM [falling, single point]
Cc1sc2ncnc(N(C)Cc3cccs3)c2c1C | 15.8 µM [rising, single point] | 31.6 µM [rising, single point]
Cc1cc(C)c(C)c(S(=O)(=O)NNC(=O)c2cccc(S(=O)(=O)N3CCOCC3)c2)c1C | 35.5 µM [rising, single point] | –
Cc1cc(N2CCCCC2)n2ncc(-c3ccccc3)c2n1 | 12.6 µM [rising, partial curve, poor fit] | 12.6 µM [rising, partial curve]
